Patent US20250186602A1, “HUMANIZED ANTIBODY THAT BONDS TO EVA1 PROTEIN OR FUNCTIONAL FRAGMENT THEREOF, ANTIBODY-DRUG CONJUGATE AND CHIMERIC ANTIGEN RECEPTOR” (CURED INC., priority 2022, published 2025)
Numbering of substitutions follows the chain as printed. No constants are given. Whether binding was seen depends on the method and setting. Some results given as binding are weak or reduced against the parent protein; the word gives no strength. Sequences can lack the tags named with a protein.

T1: hEva1-mouse Fc (human, UniProt O60487 27-154, limits assumed)
T1 construct: SPR analyte; the '1' is probably the first concentration (1 nM); also called hEva1-mouse Fc1 (so in the source); not shown: mouse Fc
T1 sequence: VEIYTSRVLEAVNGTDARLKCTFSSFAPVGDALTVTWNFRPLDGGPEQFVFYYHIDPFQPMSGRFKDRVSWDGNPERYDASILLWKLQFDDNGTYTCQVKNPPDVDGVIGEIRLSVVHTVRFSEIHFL

B1: humanized B2E5-48 antibody H2-L2 (antibody, human IgG1, V domains shown)
VH: QVQLVQSGAEVKKPGASVKVSCKASGYTFTNYWMHWVRQAPGQGLEWMGEINPTNGGTDYNEKFQGRVTMTVDKSTSTAYMELSSLRSEDTAVYYCTIYTTALDYWGQGTLVTVSS
VL: EIVLTQSPATLSLSPGERATLSCRASSSVGYMYWYQQKPGQAPRPLIYVTSNRATGIPARFSGSGSGTDYTLTISSLEPEDFAVYYCQQWSSNPPTFGQGTKLEIK
notes: Human IgG1 heavy chain and human kappa light chain vectors; made in HEK293T cells; also called B2E5-H2-L2
B2: humanized B2E5-48 antibody H2-L4 (antibody, human IgG1, V domains shown)
VH: B1 VH
VL: DIQLTQSPSFLSASVGDRVTITCRASSSVGYMYWYQQKPGKAPKPLIYVTSNLASGVPSRFSGSGSGTEYTLTISSLQPEDFATYYCQQWSSNPPTFGQGTKLEIK
notes: Human IgG1 heavy chain and human kappa light chain vectors; made in HEK293T cells
B3: humanized B2E5-48 antibody H2-L3 (antibody, human IgG1, V domains shown)
VH: B1 VH
VL: B2 VL with D1Q
notes: as for B2
B4: humanized B2E5-48 antibody H1-L4 (antibody, human IgG1, V domains shown)
VH: B1 VH with M48I, M70L, T76S
VL: B2 VL
notes: as for B2

Molecular target: T1, hEva1-mouse Fc
Experiment: SPR (BiaCore T200), KD compared with the chimeric antibody

binding, binds:
B1
B2
B3
B4
